Measured values reported in patent publication US20150238441A1, “Modulation of Branched Amino Acid Concentrations to Treat Metabolic Diseases” (UNIVERSITY OF ROCHESTER, priority 2012, published 2015).
At least one structure is not confirmed: it was looked up by name or label, or the drawing left a doubt.

Tested on: C57BL/6 mice
Test: Plasma metabolite levels in mice after a single 1 mg/kg oral gavage dose of NTBC (GC/MS and LC/MS/MS)
Assay type: in vivo
Description: For example, six male C57BL/6 mice (20-25 gm, 8-9 weeks age) were administered a single aqueous 1 mg/kg dose of NTBC by oral gavage. Plasma samples were taken 6 h following dosing. […] We conclude that NTBC can be used to reduce plasma BCAA levels in mice. It should be noted that an early study reported that plasma BCAA levels were unaffected after dosing rats with 10 mg/kg NTBC for 11 weeks (Lock et al., 1996).
The dosing solutions were prepared the day of study dosing, approximately one hour prior to dosing. Compound 1 is nitisinone (also referred to herein as “NTBC”).
54 C56BL/6 mice were housed for at least 3 days prior to dosing and were fully acclimated at study start. All mice were ad libitum fed throughout the study. Water was given ad libitum throughout the holding and study periods. Body weight was measured prior to dosing. Dosing for Group 2 and 3 occurred once on the day of study.
Blood collection (approximately 600 μL) was into pre-chilled (0-4° C.) K3-EDTA containing polypropylene blood collection tubes. After blood collection, blood samples were maintained chilled (2-6° C.) and centrifuged within 30 minutes. The collected plasma (approximately 300 μL) was placed in sample tubes and immediately stored at nominally −80° C. Frozen plasma samples were shipped for analysis on dry ice.
Samples were extracted and split into equal parts for analysis on GC/MS and LC/MS/MS platforms. Proprietary software was used to match ions to a library of standards for metabolite identification and for metabolite quantitation by peak area integration.

[1] = 1 mg/kg PO, six hours post-dosing, mice
[2] = 1 mg/kg PO, six hours post-dosing, mice, compared to vehicle alone

SMILES: O=C1CCCC(=O)C1C(=O)c1ccc(C(F)(F)F)cc1[N+](=O)[O-] [Compound 1, nitisinone]
- reduction in BCAAs, isovalerylcarnitine, gamma glutamyl amino acids, 2-hydroxy-3-methylvalerate, α-hydroxyisocaproate, monoacylglycerols and free fatty acids (1 mg/kg PO, 12 hr post treatment, mice): lack of a statistically significant reduction
- plasma levels of isovalerylcarnitine (1 mg/kg PO, after six hours, mice, compared to vehicle alone): statistically significant decrease
- plasma levels of the BCAAs valine, isoleucine and leucine (1 mg/kg PO, six hours following dosing, mice): reduced
- plasma levels of tyrosine and tyrosine metabolites (1 mg/kg PO, six hours following dosing, mice, vs control): increased above control levels
- plasma level of 2-hydroxy-3-methylvalerate [1]: statistically significant decrease
- plasma level of gamma-glutamyltyrosine [1]: statistically significant increase
- plasma level of α-hydroxyisocaproate [1]: statistically significant decrease
- plasma levels of BCAA derived gamma-glutaryl amino acids [1]: statistically significant decrease
- plasma levels of monoacylglycerols 1-oleoglycerol, 1-palmitoylglycerol and 1-stearoylglycerol [2]: statistically significant reductions
- plasma levels of the free fatty acids docosahexaenoate and docosapentaenoate [2]: statistically significant reductions
- plasma levels of tyrosine (single aqueous 1 mg/kg dose by oral gavage, plasma 6 h following dosing, male C57BL/6 mice): elevated
